Laboratory results reported in PMC11980370.

B1: Flag-tagged porcine RIG-I (protein, UniProt Q9GLV6 1-940)
chain: MTAEQRRNLHAFGDYVRKTLDPTFILSYMAPWFRDDEVQHIQAEKNNKGPTEAASLFLQFLLELQEEGWFRGFLDALNQAGYCGLCEAIESWDFQKIEKLEEYRSLLRRLQPEFKTTINPKDILPEIAECLISQECEEILQICSSKGLMAGAEKMVECLLRSDKENWPKTLKLALEKEESRFSELWMVDKGAEDVKMKDLEDDEMKTCDVQIFYKEEPENQNLSQNSCSSSAPHTYSPLKPRKYQLELALPAQNGKNTIICAPTGCGKTFVSLLICEHHLKKFPRGRKGKVVFFAIQLPVYEQQKSVFSKHFERLGYKVAGISGATSDTVCVEQIVENSDIIILTPQILVNCLTNGTIPSLSVFTLMIFDECHNTSKQHPYNVIMFSYLDRKLGGSSDSLPQVIGLTASVGVGDAKNKAEATEYICKLCASLDTSVIATVRDNLEELEEVVYKPQKFFRKVELRTTDRFKCIISQLMMEIESLAKSIFEELGTITLGGLFQIQNSNFGTQKYEQWIVKVQKECAVFQMPDKDKESRICKALFSYMSHLRIYNDALIINEHARMKDALDYLKDFFRNIRAAGFDEIEQDLTQRFEEKLQELESISIDPSNENPKLRDLCFILQEEYHLNPETRTILFVKTRALVDALKKWIKENPKLSFLKPSILTGRGKTNQNIGMTLPAQKCVLDTFRTDKDNKILITTSVADEGIDIAQCNLVILYEYVGNVIKMIQTRGRGRARGSKCFLLTANADLIDKEKMNMYKEEMMNGAILILQTWDEAVFKEKIHQIQIREKIIRDNQGKPEPVPDKKTKKLLCKKCKAFACYTADIRMVEKCHFTVVGDAFRERFVSKLHPKPKSFGNIEKRAKIYCARPDCSHDWGIYVRYKAFEMPFIKIESFVVEDIATGVQTVHAKWKDFNFEKLSFDAAEMAGGAQDLGLQGMGN
B2: Flag-tagged porcine IKKε (enzyme, UniProt M9MMN5 1-718)
chain: MQSTVNYLWHTDDLLGQGATASVYKARNKKSGELVAVKVFNTASYLRPREVQVREFEVLRKLNHQNIIKLFAVEETGGSRQKVLVMEYCSSGSLLSVLESPENAFGLPENEFLVVLRCVVAGMNHLRENGIVHRDIKPGNIMRLVGEEGQSIYKLTDFGAARELDDDEKFVSVYGTEEYLHPDMYEQAVLRKPQQKAFGVTVDLWSIGVTLYHAATGSLPFIPYGGPRRNKEIMYRITSEKPAGAIAGIQKRENGPLEWSYTLPVTCQLSTGLQSQLVPILANILEVEQAKCWGFDQFFAETSDILQRVIVHVFSLPQAVLHHVYVHTHNTIAIFLEAVYEQTNVAPQHQEYLFEGHLCVLEPSLSAQHIAHTTASSPLTLFSVASEIPKGLAFRDPALDIPKFVPKVDLQADYNTAKGVLGAGYQALRLARALLAGQELMLRGLHWFVEILQATCKRTLEVTRMALLFLSSSLGNERSSSVAGVQEIQELKRVAEMRSQLRTLAEVLSRCSHNITETQMTLSNLSSELMKNRDQVHEDRSIQQIQCSLDKMCLIYKQFKKSRMRPGLGYNEEQIHKLDKMNFSHLAKRLLQVFQEERVQKYQASLVTHGKRMRLVHETRNHLRLVGCSVAACNTQAQGAQESLSQILDQLAHQLLQDRTRGAQASPPLMATYPNPGLKDLVLHMQELCEEMKLLACDLQDNNRIIEGLNRVPAAPDI
B3: Flag-tagged porcine IRF3 (protein, UniProt Q764M6 1-419)
chain: MGTQKPRILPWLISQLNQGQLEGVAWLDEGHTRFRIPWKHGLRQDAQQEDFGIFQAWAEASGAYTPGKDKPDLPTWKRNFRSALNRKEALRLAEDHSKDPHDPHKIYEFVTSGVGDFPEPDTSLDLSGRYSTSDTHEDSLDKLLSGMDLASDAGPQSLTLALEQPPQLSLSPSVDAPASCPNLGVRENPLKQLLANDDEWEFQVTVFYRGCQVFQQTVCSPGGLRLVGSEAEDGTLAGQPVRLPDPAASLTDRGVADYVRRVLSCLGGGLALWRAGQWLWAQRLGHCHVYWAMGEELIPDSGHKPDGEVPKDREGGVFDLGPFIEDLIAFIEGSRRSPRYTLWFCMGQSWPQDEPWVKRLVMVKVVPMCLRALVDMARDGGASSLENTVDLHISNSHPLSLTSDQYKACLRDLVEDMDF

These molecules were tested against Myc-tagged porcine MARCH5 (porcine) (assay: co-IP; HEK-293T cells co-transfected for 24 h, lysed in RIPA buffer with 1 mM PMSF; lysates with anti-Myc magnetic beads overnight at 4°C (Fig. 2A, 6A; beads of Fig. 6C not told), three washes, western blot).
With B1 the binding was “no binding”.
For B2, the binding was “no binding”.
For B3, the binding was “no binding”.

Each molecule was assayed against T1, Myc-MARCH5 (membrane-associated RING-CH-type finger 5, E3 ubiquitin ligase) (UniProt Q9NX47) (assay: co-IP).
T1 sequence: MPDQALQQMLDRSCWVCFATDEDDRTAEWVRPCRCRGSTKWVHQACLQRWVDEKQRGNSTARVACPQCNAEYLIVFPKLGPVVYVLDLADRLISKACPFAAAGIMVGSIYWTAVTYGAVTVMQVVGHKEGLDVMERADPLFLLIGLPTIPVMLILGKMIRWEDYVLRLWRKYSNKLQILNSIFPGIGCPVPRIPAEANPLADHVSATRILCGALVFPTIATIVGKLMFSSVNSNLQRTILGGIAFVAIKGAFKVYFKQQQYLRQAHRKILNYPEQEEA
In the case of “Flag-tagged JEV precursor membrane (prM) protein (Japanese encephalitis virus)”, the binding is reported as “no binding”.
“Flag-tagged JEV envelope (E) protein (Japanese encephalitis virus)” was tested, and the binding was “binds”.
In the case of “Flag-tagged JEV capsid (C) protein (Japanese encephalitis virus)”, the binding is reported as “no binding”.

No constants are given. Whether binding was seen depends on the method and setting. In cells and extracts the contact can be indirect. For part of these data: A result given as binding can be weak or reduced; the word gives no strength. Where a sequence is shown, tags or fusion partners need not be part of it.
